PubChem BioAssay AID1508588 – Peter MacCallum Cancer Centre, 2020

Purpose: 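Knock-downs boosting vemurafenib effects on melanoma cell growth or lactate release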 (primary screen)
Cell system: human WM266.4 melanoma cells (BRAF V600 mutant)
Reagents: siRNA pool against human genes, 40 nM
Time to read-out: 96 h from transfection to read-out
Conditions: vemurafenib 300 nM (about IC25), added 48 h after transfection, for 48 h; comparison arm got DMSO vehicle only
Read-out: 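Ratios to non-targeting siRNA for cell gain, counted as DAPI nuclei after minus before drug and averaged over two replicates, and for absorbance-read medium lactate per cell; both binned into fold-change classes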
Reading the numbers: cell gain with vemurafenib: higher = more cell gain than with non-targeting siRNA; lactate per cell with vemurafenib: higher = more lactate made per cell
Hit rule: 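a knock-down counts as enhancing when its fold-change classes with vehicle and with vemurafenib, taken together, show a stronger drug effect on cell gain or lactate per cell; exact class pairs not stated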
Meaning of the calls: active = enhances vemurafenib effect; inactive = no enhancement seen
In all, the deposit lists about 18,000 reagents; below is a random part of them. Of all reagents, 790 (4.4%) got an active call. 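Calls rest on a combination of fold-change classes in drug and vehicle arms, not all shown here.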 No sequences are given here.

Which result is listed for LOC401052 (retired record)?
cell gain with vemurafenib: 0.89; lactate per cell with vemurafenib: 1.1; Call: inactive

With PNPLA8, how do the results read?
cell gain with vemurafenib: 0.72; lactate per cell with vemurafenib: 1; Call: inactive

How did the screen score PTGIR?
cell gain with vemurafenib: 0.73; lactate per cell with vemurafenib: 1.28; Call: inactive

What did the screen give for LCE3E?
cell gain with vemurafenib: 0.4; lactate per cell with vemurafenib: 2.1; Call: inactive

What is on record for SLC41A1?
cell gain with vemurafenib: 0.81; lactate per cell with vemurafenib: 0.95; Call: inactive

With RPL5, what does the deposit list?
cell gain with vemurafenib: -0.13; lactate per cell with vemurafenib: 2.4; Call: inactive

For VXN, how do the results read?
cell gain with vemurafenib: 0.31; lactate per cell with vemurafenib: 1.02; Call: inactive

What did the screen give for RCHY1?
cell gain with vemurafenib: 1; lactate per cell with vemurafenib: 0.68; Call: inactive

With LYG2, what was measured?
cell gain with vemurafenib: 0.52; lactate per cell with vemurafenib: 1.48; Call: inactive

With DSE, what does the deposit list?
cell gain with vemurafenib: 0.99; lactate per cell with vemurafenib: 0.55; Call: inactive

For ZSWIM9, what does the deposit list?
cell gain with vemurafenib: 0.47; lactate per cell with vemurafenib: 0.84; Call: inactive

What is on record for STAC2?
cell gain with vemurafenib: 0.67; lactate per cell with vemurafenib: 0.38; Call: inactive

Which result is listed for MCM6?
cell gain with vemurafenib: 0.74; lactate per cell with vemurafenib: 0.86; Call: inactive

What did the screen give for EPN1?
cell gain with vemurafenib: 0.73; lactate per cell with vemurafenib: 0.38; Call: inactive

Which result is listed for COA5?
cell gain with vemurafenib: 0.54; lactate per cell with vemurafenib: 1.26; Call: inactive

How did the screen score LAT?
cell gain with vemurafenib: 0.8; lactate per cell with vemurafenib: 0.88; Call: inactive

How did the screen score RNF146?
cell gain with vemurafenib: 0.61; lactate per cell with vemurafenib: 1.38; Call: inactive

What is on record for PITRM1?
cell gain with vemurafenib: 0.87; lactate per cell with vemurafenib: 0.61; Call: inactive

With OR10Z1, how do the results read?
cell gain with vemurafenib: 0.41; lactate per cell with vemurafenib: 1.23; Call: inactive

With SLC41A3, what was measured?
cell gain with vemurafenib: 0.18; lactate per cell with vemurafenib: 1.29; Call: inactive

How did the screen score NLRP7?
cell gain with vemurafenib: 0.32; lactate per cell with vemurafenib: 2.75; Call: inactive

What is on record for CA9?
cell gain with vemurafenib: 0.87; lactate per cell with vemurafenib: 0.68; Call: inactive

How did the screen score LCN2?
cell gain with vemurafenib: 0.69; lactate per cell with vemurafenib: 0.66; Call: inactive

How did the screen score ADAM22?
cell gain with vemurafenib: 1.03; lactate per cell with vemurafenib: 0.63; Call: inactive

What is on record for UBL7?
cell gain with vemurafenib: 0.17; lactate per cell with vemurafenib: 2.51; Call: inactive

What is on record for SLC14A2?
cell gain with vemurafenib: 0.35; lactate per cell with vemurafenib: 1.06; Call: inactive

What is on record for PPP1R16B?
cell gain with vemurafenib: 0.53; lactate per cell with vemurafenib: 1.96; Call: inactive
